Results published in publication PMC6925144, “A prospective compound screening contest identified broader inhibitors for Sirtuin 1” (Scientific Reports, 2019).
In all, about 3,200 compounds were measured (“TSA(without NAD+) / Primary screening (TSA) / delta Tm (K)”: median about -0.07, highest 2% from about 0.37 on). The list shows a part of the results.

Sequences of proteins named here, by UniProt entry; tags and fusion partners are left off. Residues count along the entry.
UniProt Q96EB6, 2-747 limits assumed: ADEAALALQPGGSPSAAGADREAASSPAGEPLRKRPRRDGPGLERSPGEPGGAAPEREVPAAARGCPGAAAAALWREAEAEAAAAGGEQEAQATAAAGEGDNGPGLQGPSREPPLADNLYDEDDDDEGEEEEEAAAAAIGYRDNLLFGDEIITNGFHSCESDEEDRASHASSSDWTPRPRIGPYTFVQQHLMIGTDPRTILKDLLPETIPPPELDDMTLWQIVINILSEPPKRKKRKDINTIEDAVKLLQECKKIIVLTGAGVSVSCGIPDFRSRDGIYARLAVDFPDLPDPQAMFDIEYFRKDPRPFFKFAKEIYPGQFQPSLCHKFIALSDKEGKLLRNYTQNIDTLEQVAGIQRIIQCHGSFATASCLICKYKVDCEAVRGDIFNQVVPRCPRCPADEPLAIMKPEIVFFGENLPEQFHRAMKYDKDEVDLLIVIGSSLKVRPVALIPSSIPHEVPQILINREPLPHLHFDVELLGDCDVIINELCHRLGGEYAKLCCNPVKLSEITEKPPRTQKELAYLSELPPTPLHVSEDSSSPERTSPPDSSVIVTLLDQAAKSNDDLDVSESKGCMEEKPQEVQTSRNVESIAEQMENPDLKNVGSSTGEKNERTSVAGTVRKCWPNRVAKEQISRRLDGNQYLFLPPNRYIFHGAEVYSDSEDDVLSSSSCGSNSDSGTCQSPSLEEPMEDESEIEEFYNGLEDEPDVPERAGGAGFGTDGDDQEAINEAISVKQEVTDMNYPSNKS

These compounds were tested against NAD-dependent deacetylase Sirtuin 1 (human, UniProt Q96EB6) (assay: primary screen, delta tm). Details: 10 µM.
Set-up: single well (n = 1)
Procedure, shortened: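 Thermal shift of Sirtuin 1 measured without NAD+, compound at 10 µM (n = 1); value is ΔTm, with hits defined as ΔTm > 0.45 K or < −1.5 K. Hits retested at 5, 10, 20 µM (n = 4) and counterscreened on bovine carbonic anhydrase and ABL1 SH2 domain.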

Row | SMILES | TSA(without NAD+) / Primary screening (TSA) / delta Tm (K)
1 | O=C1CCN(c2ncnc3cc(Cl)ccc23)CCN1 | -0.08
2 | O=C(NCCN1CCN(c2ccc(F)cc2)CC1)c1cc[nH]n1 | -0.12
3 | Cc1c(F)cc(C(N)=O)cc1NCC(=O)Nc1ccc([N+](=O)[O-])cc1 | -0.11
4 | O=C(CCCn1c(=O)oc2cc([N+](=O)[O-])ccc21)N1CCN(Cc2ccc(Cl)s2)CC1 | -0.07
5 | CN(c1ccccc1)S(=O)(=O)c1cccc(NC(=O)CNc2cccc3ccccc23)c1 | 0.17
6 | O=C(CSc1nc(-c2ccccc2)c(-c2ccccc2)o1)c1c[nH]c(C(=O)N2CCCC2)c1 | -0.04
7 | Cc1ccccc1N1C(=O)c2ccc(C(=O)OCC(N)=O)cc2C1=O | -0.08
8 | O=C(O)c1ccc2[nH]c3c(c2c1)CCCC3 | -0.15
9 | CC1CCc2[nH]c3ccc(C(=O)NC4CC4)cc3c2C1 (stereo not shown) | -0.14
10 | O=C(Cn1ccc(=O)c2ccccc21)Nc1ccc(N2CCCCC2)nc1 | -0.02
11 | O=C1CCCN1c1ccc(O)cc1 | -0.28
12 | COc1cc(/C=N/NC(=O)c2cc3c(s2)CCCC3)ccc1OCC(=O)Nc1ccc(C)cc1 | -0.22
13 | CCOc1ccc2[nH]c(SCC(=O)N3CCCCC3C(N)=O)nc2c1 (stereo not shown) | -0.18
14 | Cc1cc(CNc2ccc(Cl)cc2C(N)=O)no1 | -0.03
15 | CC(OC(=O)CCC(=O)c1ccc(F)cc1)C(=O)Nc1ccc(C(N)=O)cc1 (stereo not shown) | -0.02
16 | CCCOc1ccc(C2C(C(=O)/C=C/c3ccco3)=C(O)C(=O)N2CCCN2CCOCC2)cc1 (stereo not shown) | -0.02
17 | COc1ccc2cc(CN(C)CC(=O)Nc3ccc(C)cc3)ccc2c1 | -0.02
18 | c1ccc(CN2CCCCCC2)c(CNc2ccc3nnnn3n2)c1 | -0.11
19 | CCC(C)c1ccccc1NC(=O)Cc1coc2cc3c(cc12)CCC3 (stereo not shown) | -0.04
20 | CCc1ccc(N(C(C)=O)c2nc(COC(=O)CNC(=O)C34CC5CC(CC(C5)C3)C4)cs2)cc1 | -0.03
21 | COc1ccc(CCNC(=O)COC(=O)CCc2ccc(S(=O)(=O)N3CCCCC3)cc2)cc1OC | -0.14
22 | O=S(=O)(NC1CCCNC1)c1ccccc1Br (stereo not shown) | -0.33
23 | COc1cc(CN(C)C(=O)c2ccc(CS(C)(=O)=O)cc2)ccc1OCc1ccccc1 | -0.17

Row | SMILES | TSA(without NAD+) / Primary screening (TSA) / delta Tm (K)
24 | CO/N=C(/C)c1ccc2[nH]c(=O)[nH]c2c1 | 0.06
25 | Cc1cc(C(=O)COC(=O)C23CC4CC(CC(O)(C4)C2)C3)c(C)n1-c1ccc2c(c1)OCO2 | 0.03
26 | Cc1cc(=O)c2c(C)nn(-c3cccc(Cl)c3)c2[nH]1 | 0.18
27 | OC(CCc1ccccc1)CN1CCN(c2cncc3ccccc23)CC1 (stereo not shown) | -0.11
28 | CCOc1ccc2[nH]c(SCC(=O)N3CCCC(C(N)=O)C3)nc2c1 (stereo not shown) | -0.15
29 | COc1ccc2c(C=C3C(=O)N(C)C(=O)N(C)C3=O)cccc2c1 | -0.13
30 | CCOC(=O)c1ccccc1NC(=O)COc1ccc(C(N)=O)cc1 | -0.07
31 | Cc1c(NC(=O)c2cnc3ccccc3n2)c(=O)n(-c2ccccc2)n1C | -0.03
32 | CCc1cc2c(N3CCC(C(N)=O)CC3)nc(C(C)C)nc2s1 | -0.03
33 | COc1ccccc1CNC(=O)/C(=C/c1ccccc1)c1ccccc1 | -0.13
34 | Cc1cc(NC(=O)CSc2nnc(-c3c[nH]c4ccccc34)n2Cc2ccco2)no1 | -0.02
35 | O=C(CC(F)(F)F)Nc1cccc(F)c1 | -0.02
36 | CNc1cc(C)nc2c(-c3ccccc3)c(C(F)(F)F)nn12 | -0.07
37 | O=C(Nc1ccc2nc[nH]c(=O)c2c1)c1ccn(-c2ccccc2)n1 | 0.08
38 | Cc1noc(-c2cccc(NC(=O)c3ccccc3-c3ncc(-c4ccccc4)o3)c2)n1 | -0.12
39 | COCC(C)Nc1ncnc2ccsc12 (stereo not shown) | -0.04
40 | NCCSCC(=O)O | -0.32
41 | Cc1nc(S)sc1CC(=O)NC1CCCCC1C (stereo not shown) | -0.08
42 | CN(CC1OCCc2ccccc21)C(=O)c1cccc(-n2ccnn2)c1 (stereo not shown) | -0.18
43 | COc1ccc2[nH]cc(C3=CCN(C(=O)c4cc(C)no4)CC3)c2c1 | 0.02
44 | Cc1ccc(-c2nnc(S)n2C)cc1 | -0.08
45 | O=C(CCCc1cccs1)NCc1nc2ccccc2[nH]1 | -0.21
46 | Cc1ccc(C2CC(c3ccc4c(c3)OCO4)=NN2S(C)(=O)=O)cc1 (stereo not shown) | -0.24

Reformatted with tabs: part of the list above
Row	SMILES	TSA(without NAD+) / Primary screening (TSA) / delta Tm (K)
27	OC(CCc1ccccc1)CN1CCN(c2cncc3ccccc23)CC1 (stereo not shown)	-0.11
28	CCOc1ccc2[nH]c(SCC(=O)N3CCCC(C(N)=O)C3)nc2c1 (stereo not shown)	-0.15
29	COc1ccc2c(C=C3C(=O)N(C)C(=O)N(C)C3=O)cccc2c1	-0.13
30	CCOC(=O)c1ccccc1NC(=O)COc1ccc(C(N)=O)cc1	-0.07
31	Cc1c(NC(=O)c2cnc3ccccc3n2)c(=O)n(-c2ccccc2)n1C	-0.03
32	CCc1cc2c(N3CCC(C(N)=O)CC3)nc(C(C)C)nc2s1	-0.03
33	COc1ccccc1CNC(=O)/C(=C/c1ccccc1)c1ccccc1	-0.13
34	Cc1cc(NC(=O)CSc2nnc(-c3c[nH]c4ccccc34)n2Cc2ccco2)no1	-0.02
35	O=C(CC(F)(F)F)Nc1cccc(F)c1	-0.02
36	CNc1cc(C)nc2c(-c3ccccc3)c(C(F)(F)F)nn12	-0.07
37	O=C(Nc1ccc2nc[nH]c(=O)c2c1)c1ccn(-c2ccccc2)n1	0.08
38	Cc1noc(-c2cccc(NC(=O)c3ccccc3-c3ncc(-c4ccccc4)o3)c2)n1	-0.12
